{"source": "PubChem BioAssay AID1508588 (Peter MacCallum Cancer Centre, 2020)", "test": "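Knock-downs boosting vemurafenib effects on melanoma cell growth or lactate release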 (primary screen)", "cell system": "human WM266.4 melanoma cells (BRAF V600 mutant)", "knock-down reagent": "siRNA pool against human genes, 40 nM", "duration": "96 h from transfection to read-out", "conditions": "vemurafenib 300 nM (about IC25), added 48 h after transfection, for 48 h; comparison arm got DMSO vehicle only", "detection": "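Cell gain (DAPI nuclei at end minus before drug, mean of two replicates) and medium lactate by absorbance per cell, both as ratio to non-targeting siRNA, also grouped into fold-change classes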", "direction": "cell gain with vemurafenib: higher = more cell gain than with non-targeting siRNA; lactate per cell with vemurafenib: higher = more lactate made per cell", "rule for the call": "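a knock-down counts as enhancing when its fold-change classes with vehicle and with vemurafenib, taken together, show a stronger drug effect on cell gain or lactate per cell; exact class pairs not stated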", "meaning of the calls": "active = enhances vemurafenib effect; inactive = no enhancement seen", "note": "The deposit covers about 18,000 reagents; below is a random part of them. 790 of all reagents (4.4%) were called active. 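Calls rest on a combination of fold-change classes in drug and vehicle arms, not all shown here.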"}
{"Target gene":"SRPX","cell gain with vemurafenib":0.23,"lactate per cell with vemurafenib":1.62,"Outcome":"inactive"}
{"Target gene":"WDCP","cell gain with vemurafenib":0.79,"lactate per cell with vemurafenib":0.22,"Outcome":"inactive"}
{"Target gene":"SEMG1","cell gain with vemurafenib":1.11,"lactate per cell with vemurafenib":0.62,"Outcome":"inactive"}
{"Target gene":"ARL13A","cell gain with vemurafenib":1.04,"lactate per cell with vemurafenib":1,"Outcome":"inactive"}
{"Target gene":"RNF222","cell gain with vemurafenib":1.12,"lactate per cell with vemurafenib":0.85,"Outcome":"inactive"}
{"Target gene":"NLRC4","cell gain with vemurafenib":0.4,"lactate per cell with vemurafenib":1.57,"Outcome":"inactive"}
{"Target gene":"MKKS","cell gain with vemurafenib":0.67,"lactate per cell with vemurafenib":1.16,"Outcome":"inactive"}
{"Target gene":"KCNK12","cell gain with vemurafenib":0.95,"lactate per cell with vemurafenib":0.74,"Outcome":"inactive"}
{"Target gene":"VTCN1","cell gain with vemurafenib":0.44,"lactate per cell with vemurafenib":1.4,"Outcome":"inactive"}
{"Target gene":"IFT70B","cell gain with vemurafenib":1.05,"lactate per cell with vemurafenib":0.44,"Outcome":"inactive"}
{"Target gene":"PPM1A","cell gain with vemurafenib":0.86,"lactate per cell with vemurafenib":1.24,"Outcome":"inactive"}
{"Target gene":"HELLS","cell gain with vemurafenib":0.81,"lactate per cell with vemurafenib":0.6,"Outcome":"inactive"}
{"Target gene":"DCSTAMP","cell gain with vemurafenib":0.54,"lactate per cell with vemurafenib":0.32,"Outcome":"inactive"}
{"Target gene":"SAT1","cell gain with vemurafenib":0.89,"lactate per cell with vemurafenib":0.77,"Outcome":"inactive"}
{"Target gene":"PHYH","cell gain with vemurafenib":0.83,"lactate per cell with vemurafenib":0.65,"Outcome":"inactive"}
{"Target gene":"IFT172","cell gain with vemurafenib":0.45,"lactate per cell with vemurafenib":1.48,"Outcome":"inactive"}
{"Target gene":"GRAMD2B","cell gain with vemurafenib":0.3,"lactate per cell with vemurafenib":1.16,"Outcome":"inactive"}
{"Target gene":"TGM2","cell gain with vemurafenib":1.28,"lactate per cell with vemurafenib":0.48,"Outcome":"inactive"}
{"Target gene":"BEST3","cell gain with vemurafenib":0.91,"lactate per cell with vemurafenib":1.21,"Outcome":"inactive"}
{"Target gene":"PHF1","cell gain with vemurafenib":0.36,"lactate per cell with vemurafenib":0.94,"Outcome":"inactive"}
{"Target gene":"TANGO2","cell gain with vemurafenib":0.61,"lactate per cell with vemurafenib":0.19,"Outcome":"active"}
{"Target gene":"VEPH1","cell gain with vemurafenib":0.29,"lactate per cell with vemurafenib":1.15,"Outcome":"inactive"}

The list goes on, starting with the last 4 of the part before.
{"Target gene":"BEST3","cell gain with vemurafenib":0.91,"lactate per cell with vemurafenib":1.21,"Outcome":"inactive"}
{"Target gene":"PHF1","cell gain with vemurafenib":0.36,"lactate per cell with vemurafenib":0.94,"Outcome":"inactive"}
{"Target gene":"TANGO2","cell gain with vemurafenib":0.61,"lactate per cell with vemurafenib":0.19,"Outcome":"active"}
{"Target gene":"VEPH1","cell gain with vemurafenib":0.29,"lactate per cell with vemurafenib":1.15,"Outcome":"inactive"}
{"Target gene":"IBTK","cell gain with vemurafenib":0.58,"lactate per cell with vemurafenib":1.38,"Outcome":"inactive"}
{"Target gene":"WDR55","cell gain with vemurafenib":0.4,"lactate per cell with vemurafenib":0.32,"Outcome":"inactive"}
{"Target gene":"MCCD1","cell gain with vemurafenib":0.99,"lactate per cell with vemurafenib":1.32,"Outcome":"inactive"}
{"Target gene":"XPOT","cell gain with vemurafenib":0.89,"lactate per cell with vemurafenib":0.37,"Outcome":"inactive"}
{"Target gene":"TBXA2R","cell gain with vemurafenib":0.11,"lactate per cell with vemurafenib":0.95,"Outcome":"inactive"}
{"Target gene":"CA5B","cell gain with vemurafenib":0.7,"lactate per cell with vemurafenib":0.26,"Outcome":"inactive"}
{"Target gene":"GPR26","cell gain with vemurafenib":0.48,"lactate per cell with vemurafenib":0.88,"Outcome":"inactive"}
{"Target gene":"TCF25","cell gain with vemurafenib":0.29,"lactate per cell with vemurafenib":1.42,"Outcome":"inactive"}
{"Target gene":"RAPGEF4","cell gain with vemurafenib":0.85,"lactate per cell with vemurafenib":0.23,"Outcome":"inactive"}
{"Target gene":"CNOT6","cell gain with vemurafenib":0.44,"lactate per cell with vemurafenib":0.81,"Outcome":"inactive"}
{"Target gene":"KRTAP5-8","cell gain with vemurafenib":0.58,"lactate per cell with vemurafenib":1.11,"Outcome":"inactive"}
{"Target gene":"IPO11","cell gain with vemurafenib":0.09,"lactate per cell with vemurafenib":3.83,"Outcome":"inactive"}
{"Target gene":"ARID2","cell gain with vemurafenib":0.84,"lactate per cell with vemurafenib":0.66,"Outcome":"inactive"}
{"Target gene":"STOML2","cell gain with vemurafenib":0.25,"lactate per cell with vemurafenib":1.21,"Outcome":"inactive"}
{"Target gene":"SLC6A6","cell gain with vemurafenib":0.58,"lactate per cell with vemurafenib":0.92,"Outcome":"inactive"}
{"Target gene":"XRCC5","cell gain with vemurafenib":1.05,"lactate per cell with vemurafenib":0.5,"Outcome":"inactive"}
{"Target gene":"ISCA1P1","cell gain with vemurafenib":0.74,"lactate per cell with vemurafenib":1.82,"Outcome":"inactive"}
{"Target gene":"RNF166","cell gain with vemurafenib":1.06,"lactate per cell with vemurafenib":0.69,"Outcome":"inactive"}
